From article PMC4266925
These are yes or no findings as the source states them, for the method shown. In cells and extracts the contact can be indirect. Some entries that bind do so weakly or less than the wild type.

Chains of the proteins cited; added tags and fusions are not shown.
UniProt Q03164: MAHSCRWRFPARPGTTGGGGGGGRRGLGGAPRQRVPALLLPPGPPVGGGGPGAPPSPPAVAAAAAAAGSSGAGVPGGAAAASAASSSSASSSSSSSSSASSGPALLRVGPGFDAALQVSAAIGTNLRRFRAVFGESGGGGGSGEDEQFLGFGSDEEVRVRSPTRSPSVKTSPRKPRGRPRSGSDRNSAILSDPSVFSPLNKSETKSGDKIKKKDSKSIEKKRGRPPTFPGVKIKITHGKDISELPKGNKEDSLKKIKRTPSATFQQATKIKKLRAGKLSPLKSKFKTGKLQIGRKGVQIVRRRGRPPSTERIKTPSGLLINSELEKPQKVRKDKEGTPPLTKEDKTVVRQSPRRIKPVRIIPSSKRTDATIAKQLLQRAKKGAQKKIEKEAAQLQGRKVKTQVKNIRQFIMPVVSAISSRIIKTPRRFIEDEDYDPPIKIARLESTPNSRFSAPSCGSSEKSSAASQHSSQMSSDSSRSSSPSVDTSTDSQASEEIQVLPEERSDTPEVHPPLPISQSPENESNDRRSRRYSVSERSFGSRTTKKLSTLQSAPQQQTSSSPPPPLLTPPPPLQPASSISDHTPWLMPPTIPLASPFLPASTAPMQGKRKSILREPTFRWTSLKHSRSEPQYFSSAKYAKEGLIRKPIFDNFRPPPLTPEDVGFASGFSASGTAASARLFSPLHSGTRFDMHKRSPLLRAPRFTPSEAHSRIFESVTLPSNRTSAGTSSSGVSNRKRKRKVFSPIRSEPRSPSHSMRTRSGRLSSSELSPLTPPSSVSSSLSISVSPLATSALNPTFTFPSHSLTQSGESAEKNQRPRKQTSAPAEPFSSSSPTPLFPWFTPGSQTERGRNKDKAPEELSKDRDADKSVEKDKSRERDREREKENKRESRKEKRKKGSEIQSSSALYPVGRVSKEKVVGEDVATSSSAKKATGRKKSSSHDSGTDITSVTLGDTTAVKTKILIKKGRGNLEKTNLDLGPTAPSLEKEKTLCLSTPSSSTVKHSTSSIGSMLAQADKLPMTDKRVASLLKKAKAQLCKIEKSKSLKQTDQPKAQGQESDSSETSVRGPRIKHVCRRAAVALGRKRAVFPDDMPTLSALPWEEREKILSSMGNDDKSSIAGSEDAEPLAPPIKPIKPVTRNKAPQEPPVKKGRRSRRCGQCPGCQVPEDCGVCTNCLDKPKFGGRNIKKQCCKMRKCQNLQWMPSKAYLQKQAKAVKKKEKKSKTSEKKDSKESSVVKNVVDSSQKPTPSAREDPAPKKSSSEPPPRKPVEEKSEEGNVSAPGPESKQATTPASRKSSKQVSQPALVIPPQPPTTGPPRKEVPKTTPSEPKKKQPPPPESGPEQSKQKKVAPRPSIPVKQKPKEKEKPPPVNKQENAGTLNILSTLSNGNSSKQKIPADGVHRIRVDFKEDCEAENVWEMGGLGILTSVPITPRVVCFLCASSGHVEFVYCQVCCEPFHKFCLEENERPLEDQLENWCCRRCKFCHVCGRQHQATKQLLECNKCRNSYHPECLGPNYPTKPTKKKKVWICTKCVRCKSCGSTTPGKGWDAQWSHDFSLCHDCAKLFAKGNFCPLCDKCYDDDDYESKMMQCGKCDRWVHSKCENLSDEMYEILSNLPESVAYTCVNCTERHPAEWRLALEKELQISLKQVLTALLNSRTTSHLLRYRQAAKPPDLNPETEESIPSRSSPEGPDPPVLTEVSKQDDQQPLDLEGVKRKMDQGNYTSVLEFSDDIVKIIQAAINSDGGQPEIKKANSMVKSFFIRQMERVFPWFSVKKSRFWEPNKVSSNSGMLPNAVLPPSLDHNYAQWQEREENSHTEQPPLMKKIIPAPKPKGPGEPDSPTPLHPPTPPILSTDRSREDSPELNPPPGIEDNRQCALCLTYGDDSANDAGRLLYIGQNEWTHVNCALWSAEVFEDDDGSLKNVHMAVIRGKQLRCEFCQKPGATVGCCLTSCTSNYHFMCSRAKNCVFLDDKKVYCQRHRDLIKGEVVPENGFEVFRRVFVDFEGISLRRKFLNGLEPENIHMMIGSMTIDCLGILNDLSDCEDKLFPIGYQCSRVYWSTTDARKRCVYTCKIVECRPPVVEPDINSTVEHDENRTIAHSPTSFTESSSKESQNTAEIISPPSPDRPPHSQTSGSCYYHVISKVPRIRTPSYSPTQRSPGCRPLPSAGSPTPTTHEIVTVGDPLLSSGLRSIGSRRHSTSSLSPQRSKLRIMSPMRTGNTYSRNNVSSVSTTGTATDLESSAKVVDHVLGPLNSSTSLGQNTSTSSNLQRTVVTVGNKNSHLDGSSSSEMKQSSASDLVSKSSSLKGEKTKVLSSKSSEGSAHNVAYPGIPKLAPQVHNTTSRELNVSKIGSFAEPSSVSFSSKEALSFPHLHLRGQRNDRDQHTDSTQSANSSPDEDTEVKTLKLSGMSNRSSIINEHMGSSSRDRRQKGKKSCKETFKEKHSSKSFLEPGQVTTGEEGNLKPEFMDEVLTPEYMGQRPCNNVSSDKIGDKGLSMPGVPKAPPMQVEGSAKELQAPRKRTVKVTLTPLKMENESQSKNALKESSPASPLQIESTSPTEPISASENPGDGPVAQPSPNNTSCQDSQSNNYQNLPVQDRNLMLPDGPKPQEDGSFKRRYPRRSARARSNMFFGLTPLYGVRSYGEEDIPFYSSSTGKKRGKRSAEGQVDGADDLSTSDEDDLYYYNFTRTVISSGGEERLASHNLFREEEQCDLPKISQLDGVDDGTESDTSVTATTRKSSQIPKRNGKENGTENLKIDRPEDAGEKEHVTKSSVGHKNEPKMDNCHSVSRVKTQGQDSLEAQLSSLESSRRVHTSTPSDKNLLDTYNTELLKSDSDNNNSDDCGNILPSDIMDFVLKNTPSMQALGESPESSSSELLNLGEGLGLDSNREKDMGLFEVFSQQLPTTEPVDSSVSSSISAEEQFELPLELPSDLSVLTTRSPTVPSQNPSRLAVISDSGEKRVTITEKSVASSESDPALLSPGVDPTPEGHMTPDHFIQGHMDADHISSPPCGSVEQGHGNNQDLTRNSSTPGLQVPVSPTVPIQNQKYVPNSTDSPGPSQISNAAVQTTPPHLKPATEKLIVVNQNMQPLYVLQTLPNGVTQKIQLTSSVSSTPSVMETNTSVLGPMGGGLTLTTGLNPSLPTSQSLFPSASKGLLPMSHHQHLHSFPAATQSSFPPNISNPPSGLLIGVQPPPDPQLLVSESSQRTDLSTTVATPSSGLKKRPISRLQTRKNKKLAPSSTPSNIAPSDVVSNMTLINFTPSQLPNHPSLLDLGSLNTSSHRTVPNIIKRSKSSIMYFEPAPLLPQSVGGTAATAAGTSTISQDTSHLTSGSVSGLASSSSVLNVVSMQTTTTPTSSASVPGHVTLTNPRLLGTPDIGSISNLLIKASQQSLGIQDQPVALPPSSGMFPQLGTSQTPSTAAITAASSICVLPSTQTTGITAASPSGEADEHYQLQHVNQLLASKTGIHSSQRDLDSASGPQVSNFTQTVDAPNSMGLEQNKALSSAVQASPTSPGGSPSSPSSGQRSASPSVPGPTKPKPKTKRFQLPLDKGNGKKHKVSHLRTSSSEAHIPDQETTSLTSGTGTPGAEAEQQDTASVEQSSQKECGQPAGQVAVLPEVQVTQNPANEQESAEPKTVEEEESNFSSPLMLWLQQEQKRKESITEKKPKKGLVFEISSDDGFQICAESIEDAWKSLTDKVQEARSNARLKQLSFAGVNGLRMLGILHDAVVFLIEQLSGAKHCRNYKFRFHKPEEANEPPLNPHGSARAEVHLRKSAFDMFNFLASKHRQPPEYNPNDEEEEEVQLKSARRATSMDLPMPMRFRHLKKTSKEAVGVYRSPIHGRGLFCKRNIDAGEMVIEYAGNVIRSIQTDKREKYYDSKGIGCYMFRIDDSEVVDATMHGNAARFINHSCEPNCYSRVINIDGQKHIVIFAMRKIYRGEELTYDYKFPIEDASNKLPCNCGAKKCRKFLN
UniProt P03372: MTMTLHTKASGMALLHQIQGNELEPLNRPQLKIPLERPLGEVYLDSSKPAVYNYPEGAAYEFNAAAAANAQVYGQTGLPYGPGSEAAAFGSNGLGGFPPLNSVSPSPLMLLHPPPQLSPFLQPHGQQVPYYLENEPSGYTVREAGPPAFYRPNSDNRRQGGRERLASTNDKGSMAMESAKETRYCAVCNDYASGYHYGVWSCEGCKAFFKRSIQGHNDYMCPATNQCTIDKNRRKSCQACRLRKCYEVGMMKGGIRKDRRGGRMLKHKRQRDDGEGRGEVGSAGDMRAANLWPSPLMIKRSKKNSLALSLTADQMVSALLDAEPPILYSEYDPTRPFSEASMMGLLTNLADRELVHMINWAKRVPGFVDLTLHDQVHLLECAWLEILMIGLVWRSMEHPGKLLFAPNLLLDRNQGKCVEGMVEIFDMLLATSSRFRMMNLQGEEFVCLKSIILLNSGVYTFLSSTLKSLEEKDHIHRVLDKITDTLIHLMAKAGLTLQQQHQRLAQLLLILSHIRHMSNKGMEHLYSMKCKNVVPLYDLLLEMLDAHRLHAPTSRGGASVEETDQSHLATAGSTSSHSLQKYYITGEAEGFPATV

Target: mixed lineage leukaemia histone methylase 1 (human (endogenous in HL-60)) (UniProt Q03164)
Test: co-IP; nuclear extracts of HL-60 cells, untreated or treated with 100 nM E2 (6 h in methods, 8 h in results); incubated overnight at 4°C with MLL1 antibody on protein G agarose beads; washed with buffer C (20 mM Tris/HCl pH 7.9, 5 mM MgCl2, 420 mM KCl, 0.5 mM DTT) with 0.1% NP40; eluted with 0.2 M glycine pH 2.9; Western blot for ERα

With “oestrogen receptor α (from UniProt P03372 1-595)” the binding was “binds”.
